# PubChem BioAssay AID493246 – Drosophila RNAi Screening Center | 2011
# Aim: 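Identify essential fly genes by loss of cell viability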 (primary screen)
# Cells: Drosophila Kc and S2R+ cells
# Reagent: long dsRNA against Drosophila genes
# Measurement: 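Cell number per well after knock-down, printed as raw plate values; calls were based on per-plate z-scores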
# Reading the numbers: Kc cell number and S2R+ cell number: higher = more cells remaining
# Active means: 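Active when the per-plate z-score of cell number is 3 or more in the direction of fewer cells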
# In all, the deposit lists about 21,000 reagents; this is an unselected part of those that have a named target and a result. Over the whole deposit, 429 (2%) were called active. 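Values are raw and not normalised between plates; calls rest on per-plate z-scores that were not deposited.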 The numbers tell different reagents against one gene apart. A plus sign joins genes that one reagent is predicted to hit. Not stated in the record: the amount of reagent, the time to read-out.
gene knocked down,reagent no.,"Kc cell number, rep 1","Kc cell number, rep 2","S2R+ cell number, rep 1","S2R+ cell number, rep 2",Outcome
CG30154 (GeneID 246487),1,5.25e5,,7.60e5,,inactive
fuss (GeneID 43835),1,1.55e6,1.59e6,1.07e6,1.18e6,inactive
CG11686 (GeneID 50024),1,1.38e6,1.36e6,1.09e6,1.23e6,inactive
CG5877 (GeneID 32455),1,5.30e5,,8.60e5,,inactive
Csl4 (GeneID 34548),1,1.64e6,1.77e6,1.38e6,1.46e6,inactive
CG13071 (GeneID 39781),1,1.29e6,1.35e6,1.33e6,1.46e6,inactive
CG10936 (GeneID 37000),1,6.35e5,,8.83e5,,inactive
CG10936 (GeneID 37000),2,6.01e5,,8.21e5,,inactive
CG10936 (GeneID 37000),3,1.51e6,1.57e6,1.18e6,1.33e6,inactive
Rab3-GEF (GeneID 32442),1,1.58e6,1.59e6,1.17e6,1.26e6,inactive
Rab3-GEF (GeneID 32442),2,1.53e6,1.52e6,1.16e6,1.26e6,inactive
Rab3-GEF (GeneID 32442),3,1.44e6,1.47e6,9.14e5,1.00e6,inactive
Atg18a (GeneID 38913),1,1.26e6,1.36e6,1.35e6,1.31e6,inactive
CG2006 (GeneID 43472),1,5.50e5,,7.16e5,,inactive
CG13837 (GeneID 42720),1,1.87e6,1.72e6,1.06e6,1.20e6,inactive
CG6424 (GeneID 37012),1,1.35e6,1.37e6,1.12e6,1.18e6,inactive
CG8388 (GeneID 36763),1,1.54e6,1.60e6,1.20e6,1.21e6,inactive
CG13377 (GeneID 30972),1,1.51e6,1.52e6,1.14e6,1.29e6,inactive
fd19B (GeneID 33010),1,1.64e6,1.62e6,1.09e6,1.18e6,inactive
Rop (GeneID 38493),1,1.29e6,1.36e6,1.20e6,1.16e6,inactive
CG2336 (GeneID 40804),1,1.36e6,1.51e6,1.27e6,1.37e6,inactive
CG32631 (GeneID 32311),1,6.18e5,,9.22e5,,inactive
CG10102 (retired record) (GeneID 36596),1,1.51e6,1.49e6,1.08e6,1.12e6,inactive
CG14669 (GeneID 40652),1,1.12e6,1.09e6,7.22e5,7.52e5,active
CG14669 (GeneID 40652),2,1.52e6,1.48e6,1.12e6,1.25e6,inactive
CG14669 (GeneID 40652),3,1.75e6,1.75e6,1.17e6,1.31e6,inactive
CG14669 (GeneID 40652),4,1.39e6,1.62e6,1.21e6,1.29e6,inactive
CG14417 (GeneID 31274),1,1.73e6,1.82e6,1.14e6,1.26e6,inactive
CG14712 (GeneID 41397),1,1.38e6,1.43e6,6.81e5,7.86e5,active
Gr59b (GeneID 117484),1,1.73e6,1.81e6,1.45e6,1.57e6,inactive
CG7024 (GeneID 31407),1,1.46e6,1.44e6,1.01e6,1.16e6,inactive
moi + Tgs1,1,1.42e6,1.55e6,9.69e5,1.03e6,inactive
mRRF2 (GeneID 42670),1,1.68e6,1.78e6,1.03e6,1.16e6,inactive
CysRS (GeneID 36784),1,1.47e6,1.46e6,1.11e6,1.14e6,inactive
eEF1alpha1 (GeneID 36271),1,1.55e6,1.63e6,1.07e6,1.20e6,inactive
CG42697 (GeneID 10178822),1,6.19e5,,7.93e5,,inactive
CG12773 (GeneID 31082),1,5.52e5,,8.47e5,,inactive
CG10477 (GeneID 38679),1,1.61e6,1.59e6,1.06e6,1.10e6,inactive
Obp58b (GeneID 37607),1,1.48e6,1.56e6,1.28e6,1.31e6,inactive
Atx-1 (GeneID 31624),1,1.46e6,1.43e6,9.84e5,1.14e6,inactive
CG31076 (GeneID 318582),1,1.52e6,1.52e6,9.87e5,1.09e6,inactive
CG5446 (GeneID 34655),1,1.53e6,1.63e6,1.07e6,1.18e6,inactive
CG9014 (GeneID 34777),1,1.59e6,1.72e6,1.20e6,1.33e6,inactive
Cnep1r1 (GeneID 3355167),1,1.66e6,1.47e6,1.07e6,1.21e6,inactive
CG42399 (GeneID 33176),1,1.57e6,1.60e6,1.18e6,1.32e6,inactive
CG42399 (GeneID 33176),2,1.54e6,1.57e6,1.17e6,1.30e6,inactive
CG7772 (GeneID 32776),1,1.47e6,1.53e6,1.05e6,1.18e6,inactive
CG5746 (GeneID 42903),1,1.44e6,1.54e6,1.14e6,1.20e6,inactive
Ttc1 (GeneID 41993),1,1.32e6,1.70e6,1.05e6,1.05e6,inactive
CG12224 (GeneID 41453),1,1.87e6,1.90e6,1.29e6,1.38e6,inactive
CG4362 (GeneID 42410),1,1.53e6,1.51e6,1.09e6,1.20e6,inactive
RpS18 (GeneID 37292),1,1.00e6,1.13e6,7.74e5,8.89e5,active
CG17470 (GeneID 35321),1,1.22e6,1.46e6,1.10e6,1.14e6,inactive
CG34265 (GeneID 5740186),1,1.59e6,1.44e6,1.01e6,1.18e6,inactive
slmb (GeneID 42504),1,1.57e6,1.65e6,1.06e6,1.16e6,inactive
Sap130 (GeneID 39455),1,1.51e6,1.50e6,1.08e6,1.20e6,inactive
Sry-alpha (GeneID 43571),1,1.45e6,1.42e6,1.05e6,1.23e6,inactive
CG32856 (GeneID 318251),1,1.37e6,1.54e6,1.05e6,1.19e6,inactive
CG13445 (GeneID 39719),1,1.48e6,1.51e6,1.12e6,1.26e6,inactive

Entries above called active, once more:
gene knocked down,reagent no.,"Kc cell number, rep 1","Kc cell number, rep 2","S2R+ cell number, rep 1","S2R+ cell number, rep 2",Outcome
CG14669 (GeneID 40652),1,1.12e6,1.09e6,7.22e5,7.52e5,active
CG14712 (GeneID 41397),1,1.38e6,1.43e6,6.81e5,7.86e5,active
RpS18 (GeneID 37292),1,1.00e6,1.13e6,7.74e5,8.89e5,active
